From PubChem BioAssay record AID504749 (NCATS, 2011).

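Malaria parasite (P. falciparum) lines kept in red blood cells; parasite DNA is measured by SYBR Green fluorescence after lysis, 72 h after compound addition. Each compound was titrated across a series from about 0.000037 to 29 µM. The number is the fitted AC50, the concentration giving a half-maximal change in signal; a lower value means higher potency, whether the curve shows a decrease or an increase. Calls follow the curve class and fit quality: every row here is inconclusive, covering signal-raising curves and weak, poorly fitted, partial or highest-dose-only inhibition curves.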

Values are in µM. All entries here are filed as inconclusive. These entries are mostly ones the record files as inconclusive; other results of the assay are not listed here. Potencies fitted to partial, single-point or poorly fitting curves are rough.

{"smiles": "COc1c(C)c2c(c(O)c1C/C=C(\\C)CCC(=O)O)C(=O)OC2", "tested on / at": "CP192", "potency (µM)": "7.208", "curve as filed": "inhibitor, single point"}
{"smiles": "COc1c(C)c2c(c(O)c1C/C=C(\\C)CCC(=O)O)C(=O)OC2", "tested on / at": "CP325", "potency (µM)": "6.424", "curve as filed": "inhibitor, single point"}
{"smiles": "COc1c(C)c2c(c(O)c1C/C=C(\\C)CCC(=O)O)C(=O)OC2", "tested on / at": "CP247", "potency (µM)": "6.31", "curve as filed": "inhibitor, single point"}
{"smiles": "COc1c(C)c2c(c(O)c1C/C=C(\\C)CCC(=O)O)C(=O)OC2", "tested on / at": "JCK", "potency (µM)": "7.08", "curve as filed": "inhibitor, single point"}
{"smiles": "C=C1CCC2[C@](C)(CO)C(O)CC[C@]2(C)C1C/C=C1/C(=O)OCC1O", "stereo": "some centres unmarked", "tested on / at": "CP256", "potency (µM)": "7.943", "curve as filed": "inhibitor, partial curve, poor fit"}
{"smiles": "C=C1CCC2[C@](C)(CO)C(O)CC[C@]2(C)C1C/C=C1/C(=O)OCC1O", "stereo": "some centres unmarked", "tested on / at": "CP211", "potency (µM)": "21.33", "curve as filed": "inhibitor, single point"}
{"smiles": "C=C1CCC2[C@](C)(CO)C(O)CC[C@]2(C)C1C/C=C1/C(=O)OCC1O", "stereo": "some centres unmarked", "tested on / at": "AS120", "potency (µM)": "17.78", "curve as filed": "inhibitor, single point"}
{"smiles": "C=C1CCC2[C@](C)(CO)C(O)CC[C@]2(C)C1C/C=C1/C(=O)OCC1O", "stereo": "some centres unmarked", "tested on / at": "ATS95", "potency (µM)": "11.22", "curve as filed": "inhibitor, single point"}
{"smiles": "C=C1CCC2[C@](C)(CO)C(O)CC[C@]2(C)C1C/C=C1/C(=O)OCC1O", "stereo": "some centres unmarked", "tested on / at": "ICS", "potency (µM)": "17.78", "curve as filed": "inhibitor, single point"}
{"smiles": "C=C1CCC2[C@](C)(CO)C(O)CC[C@]2(C)C1C/C=C1/C(=O)OCC1O", "stereo": "some centres unmarked", "tested on / at": "CP269", "potency (µM)": "1.901", "curve as filed": "inhibitor, partial curve, poor fit"}
{"smiles": "C=C1CCC2[C@](C)(CO)C(O)CC[C@]2(C)C1C/C=C1/C(=O)OCC1O", "stereo": "some centres unmarked", "tested on / at": "PC49", "potency (µM)": "1", "curve as filed": "inhibitor, partial curve"}
{"smiles": "C=C1CCC2[C@](C)(CO)C(O)CC[C@]2(C)C1C/C=C1/C(=O)OCC1O", "stereo": "some centres unmarked", "tested on / at": "CP260", "potency (µM)": "12.59", "curve as filed": "inhibitor, partial curve"}
{"smiles": "C=C1CCC2[C@](C)(CO)C(O)CC[C@]2(C)C1C/C=C1/C(=O)OCC1O", "stereo": "some centres unmarked", "tested on / at": "PC26", "potency (µM)": "12", "curve as filed": "inhibitor, partial curve, poor fit"}
{"smiles": "C=C1CCC2[C@](C)(CO)C(O)CC[C@]2(C)C1C/C=C1/C(=O)OCC1O", "stereo": "some centres unmarked", "tested on / at": "TAB165", "potency (µM)": "11.22", "curve as filed": "inhibitor, single point"}
{"smiles": "C=C1CCC2[C@](C)(CO)C(O)CC[C@]2(C)C1C/C=C1/C(=O)OCC1O", "stereo": "some centres unmarked", "tested on / at": "PC15", "potency (µM)": "11.22", "curve as filed": "inhibitor, single point"}
{"smiles": "C=C1CCC2[C@](C)(CO)C(O)CC[C@]2(C)C1C/C=C1/C(=O)OCC1O", "stereo": "some centres unmarked", "tested on / at": "JCK", "potency (µM)": "11.22", "curve as filed": "inhibitor, single point"}
{"smiles": "C=C1CCC2[C@](C)(CO)C(O)CC[C@]2(C)C1C/C=C1/C(=O)OCC1O", "stereo": "some centres unmarked", "tested on / at": "CP215", "potency (µM)": "10.69", "curve as filed": "inhibitor, single point"}
{"smiles": "C=C1CCC2[C@](C)(CO)C(O)CC[C@]2(C)C1C/C=C1/C(=O)OCC1O", "stereo": "some centres unmarked", "tested on / at": "P93_24", "potency (µM)": "5.012", "curve as filed": "inhibitor, partial curve, poor fit"}
{"smiles": "C=C1CCC2[C@](C)(CO)C(O)CC[C@]2(C)C1C/C=C1/C(=O)OCC1O", "stereo": "some centres unmarked", "tested on / at": "DIV17", "potency (µM)": "19.01", "curve as filed": "inhibitor, single point"}
{"smiles": "C=C1CCC2[C@](C)(CO)C(O)CC[C@]2(C)C1C/C=C1/C(=O)OCC1O", "stereo": "some centres unmarked", "tested on / at": "CP203", "potency (µM)": "13.46", "curve as filed": "inhibitor, single point"}
{"smiles": "C=C1CCC2[C@](C)(CO)C(O)CC[C@]2(C)C1C/C=C1/C(=O)OCC1O", "stereo": "some centres unmarked", "tested on / at": "7G8", "potency (µM)": "8.912", "curve as filed": "inhibitor, partial curve"}

Some entries from above, unchanged:

| SMILES | tested on / at | potency (µM) | curve as filed |
|---|---|---|---|
| `C=C1CCC2[C@](C)(CO)C(O)CC[C@]2(C)C1C/C=C1/C(=O)OCC1O` (some centres unmarked) | 7G8 | 8.912 | inhibitor, partial curve |
| `C=C1CCC2[C@](C)(CO)C(O)CC[C@]2(C)C1C/C=C1/C(=O)OCC1O` (some centres unmarked) | CP256 | 7.943 | inhibitor, partial curve, poor fit |